{"source": "the supplement of paper PMC8728848", "binders": {"B1": {"name": "PX14379D-pdi-530-26-530 (Parabacteroides distasonis) (protein)", "chain": "DETVYDKLPADDFGQSTAELNALIGNSHNTMKKFWTEYMHLSECSGSMAVTPTRRGGDWYDGGQYREIYMHTWTSQTSRVKSAWKAATEAIGTCNEAIRKLQNSEILTEEEKAQDVADLRGVRAFWIYVMMDYWGNIPLLTEFHPTDKVFPGNSSRQEVFDWLIQEVEEIKDICPPATTENYGSFTQGAAYSLLAKLYLNAEAWGVTFSGNAYQKVIDNCDKVMAMGYILEPNWKDNFSVTNENSKEAILAATFSSSDTGNDGNVKNELHNNTLHYKDYLSLGITASGTWNGICAQPEYVRLFDEEDARLDGTFLTGLMIDKSTGKPIMTDHNNELNHTIDVNMIPGMEYDGTNWSAVEQHDGARCFKWEFASDLTSSMGNDFHIFRLADIYLMKAEALLRGGGSVSEATALVNTIRERGYGNSDHNYATVTLKEVQLERRLELAWEVYSRQDDIRFGCFTTGMWPQSNCERKADDYLKLLPVSQDAWQVNPNLKQNPGYAAFSK"}}, "assay_in_all_cases": "glycan array binding signal (z-score within array); higher = stronger binding", "settings_in_all_cases": "glycan notation: IUPAC condensed, linker removed", "key": {"Gal6S(b1-4)Glc6S": {"biological_target": "Gal6S(b1-4)Glc6S", "method_in_brief": "(§1)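 Columns mapping to the same glycan were averaged after glycan names were converted to IUPAC-condensed notation. The data come from 3228 arrays in the Consortium for Functional Glycomics database, limited to those with an available protein sequence. Binding is reported as a within-array Z-score averaged across arrays of one protein sequence and across linkers.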"}, "Gal6S(b1-4)GlcNAc": {"biological_target": "Gal6S(b1-4)GlcNAc", "method_in_brief": "as §1"}, "Gal6S(b1-4)GlcNAc6S": {"biological_target": "Gal6S(b1-4)GlcNAc6S", "method_in_brief": "as §1"}, "GalNAc(a1-3)Gal": {"biological_target": "GalNAc(a1-3)Gal", "method_in_brief": "as §1"}, "GalNAc(a1-3)GalNAc": {"biological_target": "GalNAc(a1-3)GalNAc", "method_in_brief": "as §1"}, "[1]": {"biological_target": "GalNAc(a1-3)GalNAc(b1-3)Gal(a1-4)Gal(b1-4)Glc", "method_in_brief": "as §1"}, "[2]": {"biological_target": "GalNAc(a1-3)GalNAc(b1-3)Gal(a1-4)Gal(b1-4)GlcNAc", "method_in_brief": "as §1"}, "GalNAc(b1-3)Gal": {"biological_target": "GalNAc(b1-3)Gal", "method_in_brief": "as §1"}, "[3]": {"biological_target": "GalNAc(b1-3)Gal(a1-4)Gal(b1-4)GlcNAc", "method_in_brief": "as §1"}, "[4]": {"biological_target": "GalNAc(b1-3)Gal(a1-4)Gal(b1-4)GlcNAc(b1-3)Gal(b1-4)Glc", "method_in_brief": "as §1"}, "[5]": {"biological_target": "GalNAc(b1-3)Gal(a1-6)Gal(b1-4)Glc", "method_in_brief": "as §1"}, "GalNAc(b1-3)GalNAc": {"biological_target": "GalNAc(b1-3)GalNAc", "method_in_brief": "as §1"}, "GalNAc(b1-3)GlcNAc": {"biological_target": "GalNAc(b1-3)GlcNAc", "method_in_brief": "as §1"}, "GalNAc(b1-4)Gal(b1-4)Glc": {"biological_target": "GalNAc(b1-4)Gal(b1-4)Glc", "method_in_brief": "as §1"}, "GalNAc(b1-4)GlcNAc": {"biological_target": "GalNAc(b1-4)GlcNAc", "method_in_brief": "as §1"}, "[6]": {"biological_target": "GalNAc(b1-4)GlcNAc(b1-2)Man", "method_in_brief": "as §1"}, "[7]": {"biological_target": "GalNAc(b1-4)GlcNAc(b1-2)Man(a1-3)[GalNAc(b1-4)GlcNAc(b1-2)Man(a1-6)]Man(b1-4)GlcNAc(b1-4)GlcNAc", "method_in_brief": "as §1"}, "[8]": {"biological_target": "GalNAc(b1-4)GlcNAc(b1-3)GalNAc(b1-4)GlcNAc", "method_in_brief": "as §1"}, "GalNAc(b1-4)GlcNAc6S": {"biological_target": "GalNAc(b1-4)GlcNAc6S", "method_in_brief": "as §1"}, "GalNAc(b1-6)GalNAc": {"biological_target": "GalNAc(b1-6)GalNAc", "method_in_brief": "as §1"}, "GalNAc3S(b1-4)GlcNAc": {"biological_target": "GalNAc3S(b1-4)GlcNAc", "method_in_brief": "as §1"}, "GalNAc3S(b1-4)GlcNAc3S": {"biological_target": "GalNAc3S(b1-4)GlcNAc3S", "method_in_brief": "as §1"}, "[9]": {"biological_target": "GalNAc3S(b1-4)[Fuc(a1-3)]GlcNAc", "method_in_brief": "as §1"}, "GalNAc4S6S(b1-4)GlcNAc": {"biological_target": "GalNAc4S6S(b1-4)GlcNAc", "method_in_brief": "as §1"}, "GalNAc6S(b1-4)GlcNAc": {"biological_target": "GalNAc6S(b1-4)GlcNAc", "method_in_brief": "as §1"}, "Glc(a1-4)Glc": {"biological_target": "Glc(a1-4)Glc", "method_in_brief": "as §1"}, "[10]": {"biological_target": "Glc(a1-4)Glc(a1-4)Glc(a1-4)Glc", "method_in_brief": "as §1"}, "Glc(a1-6)Glc(a1-6)Glc": {"biological_target": "Glc(a1-6)Glc(a1-6)Glc", "method_in_brief": "as §1"}, "[11]": {"biological_target": "Glc(a1-6)Glc(a1-6)Glc(a1-6)Glc", "method_in_brief": "as §1"}, "Glc(b1-4)Glc": {"biological_target": "Glc(b1-4)Glc", "method_in_brief": "as §1"}, "Glc(b1-6)Glc": {"biological_target": "Glc(b1-6)Glc", "method_in_brief": "as §1"}, "GlcA(b1-3)Gal": {"biological_target": "GlcA(b1-3)Gal", "method_in_brief": "as §1"}, "GlcA(b1-3)GlcNAc": {"biological_target": "GlcA(b1-3)GlcNAc", "method_in_brief": "as §1"}, "GlcA(b1-6)Gal": {"biological_target": "GlcA(b1-6)Gal", "method_in_brief": "as §1"}, "[12]": {"biological_target": "GlcA3S(b1-3)Gal(b1-4)GlcNAc(b1-2)Man", "method_in_brief": "as §1"}, "[13]": {"biological_target": "GlcA3S(b1-3)Gal(b1-4)GlcNAc(b1-3)Gal(b1-4)Glc", "method_in_brief": "as §1"}, "[14]": {"biological_target": "GlcNAc(a1-3)Gal(b1-4)GlcNAc", "method_in_brief": "as §1"}, "[15]": {"biological_target": "GlcNAc(a1-4)Gal(b1-3)GlcNAc", "method_in_brief": "as §1"}, "[16]": {"biological_target": "GlcNAc(a1-4)Gal(b1-4)GalNAc", "method_in_brief": "as §1"}, "[17]": {"biological_target": "GlcNAc(a1-4)Gal(b1-4)GlcNAc", "method_in_brief": "as §1"}, "[18]": {"biological_target": "GlcNAc(a1-4)Gal(b1-4)GlcNAc(b1-3)Gal(b1-4)Glc", "method_in_brief": "as §1"}, "[19]": {"biological_target": "GlcNAc(a1-4)Gal(b1-4)GlcNAc(b1-3)Gal(b1-4)GlcNAc", "method_in_brief": "as §1"}, "[20]": {"biological_target": "GlcNAc(a1-4)Gal(b1-4)GlcNAc(b1-3)Gal(b1-4)GlcNAc(b1-3)Gal(b1-4)GlcNAc", "method_in_brief": "as §1"}, "[21]": {"biological_target": "GlcNAc(a1-4)Gal(b1-4)GlcNAc(b1-3)Gal(b1-4)[Fuc(a1-3)]GlcNAc(b1-3)Gal(b1-4)[Fuc(a1-3)]GlcNAc", "method_in_brief": "as §1"}, "[22]": {"biological_target": "GlcNAc(a1-6)Gal(b1-4)GlcNAc", "method_in_brief": "as §1"}}, "note": "This is one part of the list.", "data": [{"binder": "B1", "values": [{"measurement": "glycan array binding signal (z-score)", "setting": "Gal6S(b1-4)Glc6S", "result": 0.655}, {"measurement": "glycan array binding signal (z-score)", "setting": "Gal6S(b1-4)GlcNAc", "result": -0.052}, {"measurement": "glycan array binding signal (z-score)", "setting": "Gal6S(b1-4)GlcNAc6S", "result": -0.546}, {"measurement": "glycan array binding signal (z-score)", "setting": "GalNAc(a1-3)Gal", "result": -0.862}, {"measurement": "glycan array binding signal (z-score)", "setting": "GalNAc(a1-3)GalNAc", "result": 0.547}, {"measurement": "glycan array binding signal (z-score)", "setting": "[1]", "result": -0.616}, {"measurement": "glycan array binding signal (z-score)", "setting": "[2]", "result": 0.643}, {"measurement": "glycan array binding signal (z-score)", "setting": "GalNAc(b1-3)Gal", "result": 0.356}, {"measurement": "glycan array binding signal (z-score)", "setting": "[3]", "result": 0.271}, {"measurement": "glycan array binding signal (z-score)", "setting": "[4]", "result": -0.07}, {"measurement": "glycan array binding signal (z-score)", "setting": "[5]", "result": -0.06}, {"measurement": "glycan array binding signal (z-score)", "setting": "GalNAc(b1-3)GalNAc", "result": 0.569}, {"measurement": "glycan array binding signal (z-score)", "setting": "GalNAc(b1-3)GlcNAc", "result": -0.841}, {"measurement": "glycan array binding signal (z-score)", "setting": "GalNAc(b1-4)Gal(b1-4)Glc", "result": -0.159}, {"measurement": "glycan array binding signal (z-score)", "setting": "GalNAc(b1-4)GlcNAc", "result": 0.849}, {"measurement": "glycan array binding signal (z-score)", "setting": "[6]", "result": -0.381}, {"measurement": "glycan array binding signal (z-score)", "setting": "[7]", "result": 2.64}, {"measurement": "glycan array binding signal (z-score)", "setting": "[8]", "result": 0.853}, {"measurement": "glycan array binding signal (z-score)", "setting": "GalNAc(b1-4)GlcNAc6S", "result": 1.07}, {"measurement": "glycan array binding signal (z-score)", "setting": "GalNAc(b1-6)GalNAc", "result": 0.442}, {"measurement": "glycan array binding signal (z-score)", "setting": "GalNAc3S(b1-4)GlcNAc", "result": 0.427}, {"measurement": "glycan array binding signal (z-score)", "setting": "GalNAc3S(b1-4)GlcNAc3S", "result": -0.774}, {"measurement": "glycan array binding signal (z-score)", "setting": "[9]", "result": -0.515}, {"measurement": "glycan array binding signal (z-score)", "setting": "GalNAc4S6S(b1-4)GlcNAc", "result": -0.487}, {"measurement": "glycan array binding signal (z-score)", "setting": "GalNAc6S(b1-4)GlcNAc", "result": -0.028}, {"measurement": "glycan array binding signal (z-score)", "setting": "Glc(a1-4)Glc", "result": -0.561}, {"measurement": "glycan array binding signal (z-score)", "setting": "[10]", "result": 0.448}, {"measurement": "glycan array binding signal (z-score)", "setting": "Glc(a1-6)Glc(a1-6)Glc", "result": -0.519}, {"measurement": "glycan array binding signal (z-score)", "setting": "[11]", "result": -0.407}, {"measurement": "glycan array binding signal (z-score)", "setting": "Glc(b1-4)Glc", "result": 0.179}, {"measurement": "glycan array binding signal (z-score)", "setting": "Glc(b1-6)Glc", "result": -0.859}, {"measurement": "glycan array binding signal (z-score)", "setting": "GlcA(b1-3)Gal", "result": 0.111}, {"measurement": "glycan array binding signal (z-score)", "setting": "GlcA(b1-3)GlcNAc", "result": -1.04}, {"measurement": "glycan array binding signal (z-score)", "setting": "GlcA(b1-6)Gal", "result": 0.146}, {"measurement": "glycan array binding signal (z-score)", "setting": "[12]", "result": -0.312}, {"measurement": "glycan array binding signal (z-score)", "setting": "[13]", "result": -0.229}, {"measurement": "glycan array binding signal (z-score)", "setting": "[14]", "result": -0.139}, {"measurement": "glycan array binding signal (z-score)", "setting": "[15]", "result": -0.512}, {"measurement": "glycan array binding signal (z-score)", "setting": "[16]", "result": -0.622}, {"measurement": "glycan array binding signal (z-score)", "setting": "[17]", "result": -0.498}, {"measurement": "glycan array binding signal (z-score)", "setting": "[18]", "result": -1.06}, {"measurement": "glycan array binding signal (z-score)", "setting": "[19]", "result": -0.378}, {"measurement": "glycan array binding signal (z-score)", "setting": "[20]", "result": 0.721}, {"measurement": "glycan array binding signal (z-score)", "setting": "[21]", "result": 0.085}, {"measurement": "glycan array binding signal (z-score)", "setting": "[22]", "result": 0.342}]}]}
